No constants are given. Whether binding was seen depends on the method and setting. Some results given as binding are weak or reduced against the parent protein; the word gives no strength.
Biological target: T1, recombinant human nicotinate phosphoribosyltransferase (rNAPRT) (human) (UniProt Q6XQN6)
T1 sequence: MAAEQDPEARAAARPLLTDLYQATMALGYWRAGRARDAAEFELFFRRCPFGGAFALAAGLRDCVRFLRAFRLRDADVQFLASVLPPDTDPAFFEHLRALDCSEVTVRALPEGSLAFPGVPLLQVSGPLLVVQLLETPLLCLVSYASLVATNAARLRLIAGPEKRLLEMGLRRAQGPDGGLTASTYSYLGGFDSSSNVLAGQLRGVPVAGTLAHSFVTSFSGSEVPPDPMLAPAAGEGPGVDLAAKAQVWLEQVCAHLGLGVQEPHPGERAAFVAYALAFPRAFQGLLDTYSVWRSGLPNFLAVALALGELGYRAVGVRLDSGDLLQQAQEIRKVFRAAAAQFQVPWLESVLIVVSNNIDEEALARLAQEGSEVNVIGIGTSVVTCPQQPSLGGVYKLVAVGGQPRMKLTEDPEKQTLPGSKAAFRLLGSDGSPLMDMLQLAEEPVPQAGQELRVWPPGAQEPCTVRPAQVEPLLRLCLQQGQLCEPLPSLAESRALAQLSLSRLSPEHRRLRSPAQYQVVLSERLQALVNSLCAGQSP
Test: SPR; anti-NAPRT monoclonal antibody (Proteintech) immobilised on a CMD 2D chip (MP-SPR Navi 210A); TLR4 (1 uM), NAPRT (100 nM) and pre-mixed TLR4/NAPRT (1 uM/100 nM) injected for 210 s at 30 ul/min; 10 mM HEPES, 0.05% Tween, pH 7.5; 25 °C; both purified

Sequences of proteins named here, by UniProt entry; tags and fusion partners are left off. Residues count along the entry.
UniProt O00206, residues 24-631: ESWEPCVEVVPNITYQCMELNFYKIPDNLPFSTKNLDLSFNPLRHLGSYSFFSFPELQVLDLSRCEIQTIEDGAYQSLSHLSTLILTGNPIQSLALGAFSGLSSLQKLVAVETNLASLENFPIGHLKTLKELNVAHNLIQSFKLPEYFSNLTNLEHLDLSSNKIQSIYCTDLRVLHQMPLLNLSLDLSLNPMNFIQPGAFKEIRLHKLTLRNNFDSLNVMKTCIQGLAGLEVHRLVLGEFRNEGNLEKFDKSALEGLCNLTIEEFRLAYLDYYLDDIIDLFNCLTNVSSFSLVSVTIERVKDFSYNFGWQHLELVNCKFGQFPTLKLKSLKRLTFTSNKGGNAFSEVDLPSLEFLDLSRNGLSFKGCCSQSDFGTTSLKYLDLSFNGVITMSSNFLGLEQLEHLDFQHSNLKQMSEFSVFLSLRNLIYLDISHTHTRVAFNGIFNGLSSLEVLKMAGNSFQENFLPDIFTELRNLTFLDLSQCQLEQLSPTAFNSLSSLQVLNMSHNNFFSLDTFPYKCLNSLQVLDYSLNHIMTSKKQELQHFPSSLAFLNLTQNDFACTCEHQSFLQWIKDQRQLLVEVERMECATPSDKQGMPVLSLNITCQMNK

Substance: recombinant extracellular domain of TLR4 (rTLR4) (from UniProt O00206 24-631) (domain or fragment)
- binding: binds
